The list shows a part of the results.

Chains of the proteins cited; added tags and fusions are not shown.
UniProt Q0JBA9, entry or part of it: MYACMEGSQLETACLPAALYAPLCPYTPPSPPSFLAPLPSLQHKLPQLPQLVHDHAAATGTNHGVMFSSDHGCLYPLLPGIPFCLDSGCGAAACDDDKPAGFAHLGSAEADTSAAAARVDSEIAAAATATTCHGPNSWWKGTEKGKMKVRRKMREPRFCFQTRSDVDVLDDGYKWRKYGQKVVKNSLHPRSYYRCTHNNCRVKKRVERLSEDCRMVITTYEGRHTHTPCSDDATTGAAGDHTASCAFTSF

In the assay the target is OsWRKY34 (Oryza sativa, UniProt Q0JBA9 1-250). Briefly: protein-binding microarray (RPBM); PBS, 2% BSA, 51.3 ng/ul salmon testes DNA, 50 uM zinc acetate, 200 nM TF, 25 C, 1 h; high values mean tight binding. As to conditions: protein: recombinant; tags: N-terminal polyhistidine and DsRed monomer fusion (pET32a); label: CyDye5-dUTP incorporated in the synthesized complementary strand; 3' TTTTT single-stranded linker to array surface; dsDNA, one strand shown. The procedure, abridged:
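Using Ni–NTA, transcription factors fused N-terminally to polyhistidine and DsRed were purified after expression in E. coli BL21-CodonPlus. These were incubated at 200 nM with a blocked, double-stranded custom Agilent array for 1 h at 25 °C in a buffer containing 50 µM zinc acetate, and the array was washed. The binding signal is per-feature fluorescence intensity (arbitrary units) on an Axon 4000B scanner.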
For the sequence “TTGTCAATTACTGCTCCGGTGACTGTTAATTTGGATTTTCCGGAGTCACCTAGTGCAG”, the binding signal is 10700 fluorescence intensity (a.u.).
The same measure for “GCATTTTACAGGTTTTCTCGGCCACATACTGTCATAGGAACGGAGTCACCTAGTGCAG”: 10500 fluorescence intensity (a.u.).
Consider “CATATGTTTACACCCAAATTTGGCACCTAGGATTAAAATACGGAGTCACCTAGTGCAG”, for which the binding signal was 8350 fluorescence intensity (a.u.).
The same measure for “CTACCTCCTTTCTAAATTAGTGGTCGTTTTGACTTTCTTCCGGAGTCACCTAGTGCAG”: 11200 fluorescence intensity (a.u.); for “TAGGCTATCTTTTGAAGGGAGGGGTTTTTTCATCACCTATCGGAGTCACCTAGTGCAG”: 17000 fluorescence intensity (a.u.); for “TAAATTGCATCATGCCGGTGTCATTTGTTTCTTTGCTGCCCGGAGTCACCTAGTGCAG”: 8870 fluorescence intensity (a.u.).
In the case of “TTGAATAAGACGAATGGTCAAACATGTGAGAAAAAGTCAACGGAGTCACCTAGTGCAG” it was 8150 fluorescence intensity (a.u.); in that of “TCATCTACTTCTCCGATCTCAATCATAACACACCTCAATCCGGAGTCACCTAGTGCAG”, 9140 fluorescence intensity (a.u.).
The same measure for “AACCAGCTCTGTTTGACGGTTTCCTGCCGCAGTTGCCGACCGGAGTCACCTAGTGCAG”: 8520 fluorescence intensity (a.u.); for “ATCTTTGATATTGTCATGCTATCTCAATTCTCGAGTCCTCCGGAGTCACCTAGTGCAG”: 9280 fluorescence intensity (a.u.).
“ATCCTTTTCTTTGGCAGTCCTTGATCCCAGATCCACATTTCGGAGTCACCTAGTGCAG”: the binding signal is 9820 fluorescence intensity (a.u.).
Take “CACAACAACCACAACAACAACAAAAAGCTCTCACCTTTCACGGAGTCACCTAGTGCAG”: the binding signal was 8280 fluorescence intensity (a.u.).
The same measure for “GATAGAGTGTTTTCATTCAGTTGCTTCGAGTTTGGAAGAACGGAGTCACCTAGTGCAG”: 8400 fluorescence intensity (a.u.).
Regarding “GGCGCGCAAAACAGCGACCTCCACACACCCTCGCAAACTCCGGAGTCACCTAGTGCAG”, the binding signal was 8400 fluorescence intensity (a.u.).
Turning to “CCCTTCTTGAATATTCAGGCTTTTCACCGGATTCGGAATTCGGAGTCACCTAGTGCAG”, the binding signal was 9010 fluorescence intensity (a.u.).
Regarding “CAGTTATTGATAGATATATACATTACGTCCCTTTTTTTAACGGAGTCACCTAGTGCAG”, the binding signal was 8400 fluorescence intensity (a.u.).
In the case of “CCACTTTATTCTTTTCATACCAATGTCTTCTTATCTGTATCGGAGTCACCTAGTGCAG” it was 8320 fluorescence intensity (a.u.).
In the case of “GCTCATGCCGGTATGTCTGTTCCTGCCTCCTCCAAAATTTCGGAGTCACCTAGTGCAG”, the binding signal was 8810 fluorescence intensity (a.u.).
“TGCATACGTCTTAACCTAACCATCTACGAAAATAGGCCTACGGAGTCACCTAGTGCAG”: the binding signal was 9490 fluorescence intensity (a.u.).
Take “GATTAGCCATAAGTACTGCTACAGTAACCCACATATGCTACGGAGTCACCTAGTGCAG”: the binding signal is 8450 fluorescence intensity (a.u.).
As to “TGGTATTCTTTTGGGTGTTTCAGCAAATACTATATTTTTTCGGAGTCACCTAGTGCAG”, the binding signal was 8640 fluorescence intensity (a.u.).
Turning to “TCTAAAGTGTTTCATTCATTTCTATGTTTGTTTTTTATGGCGGAGTCACCTAGTGCAG”, the binding signal was 9260 fluorescence intensity (a.u.).
Consider “ATCCCCACGCTTCCATTCCATCCATCTCTCTCGCTCTCTCCGGAGTCACCTAGTGCAG”, for which the binding signal was 8770 fluorescence intensity (a.u.).
In the case of “CCTTCTTGGGGAATGCTTTTCTATGTGGGTTTCCTTTACACGGAGTCACCTAGTGCAG” it was 10400 fluorescence intensity (a.u.); in that of “ATACTTTCTCTATTTTTAAATACTTATACCGTTCACTTCTCGGAGTCACCTAGTGCAG”, 10100 fluorescence intensity (a.u.).
In the case of “CCTCGTCCTCCGCCATCGACCATGACCGTGCTTCGTCATGCGGAGTCACCTAGTGCAG”, the binding signal is 9770 fluorescence intensity (a.u.).
For the sequence “CGAACCTCGACGCCTGCATCCGCATCCGCCTCCGCCTCCGCGGAGTCACCTAGTGCAG”, the binding signal was 8050 fluorescence intensity (a.u.).
For the sequence “CTCTACTCTTGATTTCTCACTCTTCTATAGATCTTTAATTCGGAGTCACCTAGTGCAG”, the binding signal was 10800 fluorescence intensity (a.u.).
The same measure for “GAAATTCACCACAAATCACCAATCTGCCACGGCCCGCGCGCGGAGTCACCTAGTGCAG”: 10500 fluorescence intensity (a.u.).
On to “GTAGCAGACCAGCACACCCACATATATACACACGCACACACGGAGTCACCTAGTGCAG”, for which the binding signal is 8630 fluorescence intensity (a.u.).
As for “AGCTGAGGGGCGGCGGCGGCTGGCAAGGGGCGGCGGCGGCCGGAGTCACCTAGTGCAG”, the binding signal was 10900 fluorescence intensity (a.u.).
In the case of “GTTCGTTGTTCTATCGCTCACCCGCGCTTCAGGTCATTTACGGAGTCACCTAGTGCAG” it was 13200 fluorescence intensity (a.u.); in that of “TCCCCACCTATCGTTGCTTCTCACAGCTAGATCCGGCAAACGGAGTCACCTAGTGCAG”, 8840 fluorescence intensity (a.u.); in that of “TGGATTCTTAACTCAAACCTGCCGCTGGTTTCCGCGCGCGCGGAGTCACCTAGTGCAG”, 8710 fluorescence intensity (a.u.).
As for “GTTTTTTTTTAAGCACGTTTTAAACACGAAAGTCTTTCTTCGGAGTCACCTAGTGCAG”, the binding signal is 8330 fluorescence intensity (a.u.).
In the case of “TGTCTCTTTCGTTGATAGTCCTGATAGTCCTGGATACTCGCGGAGTCACCTAGTGCAG” it was 8510 fluorescence intensity (a.u.); in that of “TCGCTGCCCGCTGTCCCGTCCTCGAGTCGCCACCTGCCACCGGAGTCACCTAGTGCAG”, 9950 fluorescence intensity (a.u.); in that of “AATTGGAGAAGTTGACTTTTCTGACAGCCCTTGTGTGTACCGGAGTCACCTAGTGCAG”, 10200 fluorescence intensity (a.u.).
In the case of “ATCATTCCTAACTGCCTGGTCGTACTTCTCTGTATTTTGTCGGAGTCACCTAGTGCAG”, the binding signal was 17500 fluorescence intensity (a.u.).
With “TTCCACATACATCCATCCTGATCCTTCCTTGCCGCACACACGGAGTCACCTAGTGCAG”, the binding signal was 10700 fluorescence intensity (a.u.).
Consider “AGAGCAGCAGCCCATCATTTGTTCGATCCAATTCCCATCCCGGAGTCACCTAGTGCAG”, for which the binding signal is 9130 fluorescence intensity (a.u.).
Consider “CGCCTTGAAGCTCCCGTTGCTGCTGGTACATATATACACACGGAGTCACCTAGTGCAG”, for which the binding signal is 8630 fluorescence intensity (a.u.).

The values are drawn from publication PMC7819943, “Rice protein-binding microarrays: a tool to detect cis-acting elements near promoter regions in rice”.
